{"source": "PubChem BioAssay AID1347131", "about": "(National Center for Advancing Translational Sciences (NCATS), 2019)", "note": "About 2,000 (0.49%) of roughly 410,000 compounds were called active. Inconclusive results, whose numbers are uncertain, are shown with a selection of clear calls. The call rests on the fitted dose curve; tested in HEK293 reporter line. Potencies beside an inconclusive call are fits to weak or partial responses and may not hold up. Potency means the concentration at half of the fitted maximal effect."}
{"test": "qHTS Assay for Foot and Mouth Disease Virus Antivirals: Primary Screen against the MLPCN compound library; further: nearly all actives have a fitted effect of over 55% in size", "settings": "FMDV antiviral cell-based qHTS; activity, negative = inhibition: at 57.9 µM (top of the series)"}
{"smiles": "COC(=O)c1ccc(N=C(c2ccccc2)c2c(O)n(C)c(=O)n(C)c2=O)cc1", "activity, negative = inhibition": "inconclusive: -31.3% [inhibitor]"}
{"smiles": "COc1ccc(C(=O)C2CCN(C(=O)c3ccc(F)cc3)CC2)cc1", "Potency": "inconclusive: 39.8 µM [inhibitor, partial curve, poor fit]"}
{"smiles": "Cc1cc(N2CCCC2)ccc1NC(=O)COc1cccc(C(F)(F)F)c1", "Potency": "inconclusive: 12.6 µM [inhibitor, partial curve]"}
{"smiles": "O=C(CSC1=Nc2ccccc2C2CC=NN12)Nc1ccc2c(c1)OCO2", "note": "(configuration not stated)", "Potency": "inconclusive: 20 µM [inhibitor, partial curve, poor fit]"}
{"smiles": "COC(=O)c1ccc(COc2cc(O)c3c(c2)OC(C)(C)CC3=O)cc1", "Potency": "inconclusive: 35.5 µM [inhibitor, single point]"}
{"smiles": "CCOC(=O)N1CCN(c2nc3ccccc3nc2C(C#N)C(=O)NCCc2ccccc2)CC1", "note": "(configuration not stated)", "activity, negative = inhibition": "inconclusive: -43.5% [inhibitor]"}
{"smiles": "CCn1c(-c2ccccc2)c(C(=O)CCl)c2ccccc21", "Potency": "inconclusive: 17.8 µM [inhibitor, partial curve, poor fit]"}
{"smiles": "CCc1c(C)nc2ncnn2c1NCCc1ccc(Cl)cc1", "Potency": "inconclusive: 14.1 µM [inhibitor, partial curve, poor fit]"}
{"smiles": "CNC(=O)Oc1ccc(-c2cn3cc(C)ccc3n2)cc1", "Potency": "inconclusive: 12.6 µM [inhibitor, partial curve, poor fit]"}
{"smiles": "Cc1noc(C)c1S(=O)(=O)Nc1cc(C(F)(F)F)ccc1N1CCOCC1", "activity, negative = inhibition": "inconclusive: -33.3% [inhibitor]"}
{"smiles": "COc1ccc2[nH]c(C(=O)Nc3cccc(C)n3)cc2c1", "Potency": "inconclusive: 20 µM [inhibitor, single point]"}
{"smiles": "COc1ccc(N2CCN(CCCNC(=O)CC3Oc4ccc(C)cc4NC3=O)CC2)cc1", "note": "(configuration not stated)", "Potency": "inconclusive: 10 µM [inhibitor, partial curve]"}
{"smiles": "Cc1ccc(S(=O)(=O)C2(S(=O)(=O)c3ccc(C)cc3)CC2)cc1", "activity, negative = inhibition": "inactive: -43.8%"}
{"smiles": "O=C(COc1ccc2ccccc2c1)N1CCN(C2CCN(Cc3ccccc3)CC2)CC1", "Potency": "inconclusive: 20 µM [inhibitor, partial curve, poor fit]"}
{"smiles": "COc1ccc2oc3cc(C)[n+]([O-])c(-c4ccc(Br)cc4)c3c2c1", "Potency": "inconclusive: 31.6 µM [inhibitor, single point]"}
{"smiles": "COc1ccc(C(C)(O)c2nc(-c3ccc(S(C)(=O)=O)cc3)cs2)cc1", "note": "(configuration not stated)", "activity, negative = inhibition": "inactive: -32.7%"}
{"smiles": "Cc1ccccc1C(=O)N1[C@@H](C(C)C)COc2cc(Br)ccc2S1(=O)=O", "Potency": "inconclusive: 39.8 µM [inhibitor, partial curve, poor fit]"}
{"smiles": "CCC1(c2ccc(F)cc2)NC(=O)N(CC(=O)Nc2cc(S(=O)(=O)N(C)C)ccc2Cl)C1=O", "note": "(configuration not stated)", "activity, negative = inhibition": "inactive: -31.6%"}
{"smiles": "COc1ccc(Cc2noc(CN3CCN(c4ccc(Cl)cn4)CC3)n2)cc1OC", "Potency": "inconclusive: 12.6 µM [inhibitor, partial curve, poor fit]"}
{"smiles": "Cc1cc(C)cc(NC(=O)COc2coc(CN3CCc4ccccc4C3)cc2=O)c1", "Potency": "inconclusive: 11.2 µM [inhibitor, partial curve, poor fit]"}
{"smiles": "COc1cc2nc(C3CCC3)nc(N3CCN(c4ccccn4)CC3)c2cc1OC", "Potency": "inconclusive: 17.8 µM [inhibitor, partial curve, poor fit]"}
{"smiles": "CCOC(=O)c1sc(NC(=O)c2ccc(S(=O)(=O)N3CCOCC3)cc2)nc1-c1ccccc1", "Potency": "inconclusive: 14.1 µM [inhibitor, single point]"}
{"smiles": "O=C(Nc1ccccc1)Nc1ccc(C(=O)N2CCCC2)cc1", "Potency": "inconclusive: 20 µM [inhibitor, single point]"}
{"smiles": "Cc1ccc(C)c(N2CCN(S(=O)(=O)c3cc4c(cc3Cl)NC(=O)CO4)CC2)c1", "activity, negative = inhibition": "inactive: -31.6%"}
{"smiles": "COC(=O)c1ccc(Cl)c(-c2ccc(/C=N/NC(=O)Nc3ccccc3)o2)c1", "activity, negative = inhibition": "inconclusive: -35.1% [inhibitor]"}
{"smiles": "CCc1ccc(S(=O)(=O)c2cn(C)c3cc(N4CCC(C)CC4)c(F)cc3c2=O)cc1", "Potency": "inconclusive: 2.24 µM [inhibitor, full curve]"}
{"smiles": "Cc1cc(N2CCC(C(=O)N3CCN(c4cccc(C)c4C)CC3)CC2)n2ncnc2n1", "Potency": "inconclusive: 3.16 µM [inhibitor, full curve]"}
{"smiles": "COc1ccccc1C1NC(c2ccccc2OC)C(C)C(=O)C1C", "note": "(configuration not stated)", "Potency": "inconclusive: 7.94 µM [inhibitor, full curve]"}
{"smiles": "CCc1ccc(C(=O)C[n+]2cccc3cc(OC)ccc32)cc1", "Potency": "active: 8.91 µM"}
{"smiles": "CC(=O)/C=C/n1c(=S)oc2ccccc21", "Potency": "inconclusive: 3.16 µM [inhibitor, full curve, poor fit]"}
{"smiles": "Cc1ccccc1C(=O)N(Cc1nc(-c2ccc(Cl)cc2)no1)C(C)C", "activity, negative = inhibition": "inactive: -30.6%"}
{"smiles": "CCOC(=O)c1cn[nH]c1NC(=S)Nc1ccc(OC)cc1", "Potency": "active: 17.8 µM"}
{"smiles": "Cc1ccc(NC(=O)C(=O)NCCN2CCN(S(=O)(=O)c3ccccc3)CC2)cc1C", "Potency": "inconclusive: 25.1 µM [inhibitor, partial curve, poor fit]"}
{"smiles": "CN1C(=O)/C(=C\\C(=O)c2cccs2)c2ccccc21", "Potency": "inconclusive: 22.4 µM [inhibitor, partial curve, poor fit]"}
{"smiles": "O=c1nc(N/N=C/C=C/c2ccccc2)cn[nH]1", "Potency": "active: 14.1 µM"}
{"smiles": "O=C1Nc2ccccc2/C1=C\\C(=O)c1ccccc1", "Potency": "inconclusive: 31.6 µM [inhibitor, partial curve, poor fit]"}
{"smiles": "O=C1C(Cl)=C(N2CCC(C(=O)O)CC2)C(=O)c2ccccc21", "Potency": "inconclusive: 35.5 µM [inhibitor, single point]"}
{"smiles": "O=C(CCl)N1CCN(S(=O)(=O)c2ccc3c(c2)OCCCO3)CC1", "Potency": "inconclusive: 25.1 µM [inhibitor, partial curve, poor fit]"}
{"smiles": "O=C(Nc1ccc(OC(F)F)c(Cl)c1)C(c1ccccc1)c1ccccc1", "Potency": "inconclusive: 39.8 µM [inhibitor, partial curve, poor fit]"}
{"smiles": "COc1ccc(C(=O)Nc2nc(C)c3cc4c(cc3n2)OCO4)cc1", "Potency": "inconclusive: 25.1 µM [inhibitor, partial curve, poor fit]"}
{"smiles": "CCN(C(=O)COC(=O)c1ccc(Br)o1)C1CCCCC1", "Potency": "inconclusive: 8.91 µM [inhibitor, partial curve, poor fit]"}
{"smiles": "CCOC(=O)c1c(Nc2ccc(C)c(C)c2)nnc(-c2ccccc2)c1-c1ccccc1", "Potency": "inconclusive: 14.1 µM [inhibitor, partial curve]"}
{"smiles": "Cc1csc(SCC(=O)Nc2sccc2C#N)n1", "Potency": "inconclusive: 39.8 µM [inhibitor, single point]"}
{"smiles": "Cc1ccccc1NC(=O)/C=C/c1ccc([N+](=O)[O-])s1", "Potency": "inconclusive: 10 µM [inhibitor, partial curve, poor fit]"}
{"smiles": "CCOC(=O)c1cc(C)n(CC2CCC(C(=O)Nc3ccc(OC)cc3)CC2)c1C", "note": "(configuration not stated)", "activity, negative = inhibition": "inactive: -31.8%"}
{"smiles": "Cc1c(CC(=O)NCCCC(=O)O)c(=O)oc2cc3c(cc12)CCC(C)(C)O3", "Potency": "inconclusive: 6.31 µM [inhibitor, partial curve, poor fit]"}
{"smiles": "COc1cccc(-c2cc3nc(-c4ccccc4)cc(N4CCN(C(=O)c5ccoc5)CC4)n3n2)c1", "Potency": "inconclusive: 31.6 µM [inhibitor, partial curve, poor fit]"}
{"smiles": "COC(=O)c1ccc(Cn2nnc3ccccc32)cc1", "Potency": "inconclusive: 11.2 µM [inhibitor, partial curve]"}
{"smiles": "Cc1ccc(-c2csc3ncnc(NCCC(=O)O)c23)cc1", "Potency": "inconclusive: 1.12 µM [inhibitor, full curve]"}
{"smiles": "COc1ccccc1-c1csc(NC(=O)c2ccc(N3C(=O)CCC3=O)cc2)n1", "Potency": "inconclusive: 17.8 µM [inhibitor, partial curve, poor fit]"}
{"smiles": "CC1c2cc3c(cc2CCN1C(=O)c1ccc(C(F)(F)F)cc1)OCCCO3", "note": "(configuration not stated)", "activity, negative = inhibition": "inactive: -34.3%"}
{"smiles": "CC(=O)c1ccc(OCCNS(=O)(=O)c2ccc(-n3cnnn3)cc2)cc1", "Potency": "inconclusive: 15.8 µM [inhibitor, partial curve, poor fit]"}
{"smiles": "Cn1ncc2c(N3CCC(Cc4ccccc4)CC3)ncnc21", "Potency": "inconclusive: 20 µM [inhibitor, partial curve, poor fit]"}
{"smiles": "Cc1ccc(Cl)cc1-n1ncc2c(N3CCCCCC3)ncnc21", "Potency": "inconclusive: 20 µM [inhibitor, partial curve, poor fit]"}
{"smiles": "CCc1cccc(N(C(=O)c2csnn2)C(C(=O)NC2CCCCC2)c2cccnc2)c1", "note": "(configuration not stated)", "Potency": "inconclusive: 6.31 µM [inhibitor, full curve]"}
{"smiles": "O=C1NC2c3c(I)sc(I)c3C(=O)C2O1", "note": "(configuration not stated)", "Potency": "inconclusive: 39.8 µM [inhibitor, single point]"}
{"smiles": "O=C(Nc1nnc(C2CC2)s1)c1cccc(S(=O)(=O)N2CCc3ccccc32)c1", "Potency": "inconclusive: 20 µM [inhibitor, single point]"}
{"smiles": "CC(C)Oc1ccc(CNC(=O)c2cccc(NC(=O)N3CCSc4ncccc43)c2)cc1", "Potency": "active: 20 µM"}
{"smiles": "Cc1cc(C)c(-n2c(SCc3nc4ccccc4s3)n[nH]c2=O)c(C)c1", "Potency": "inconclusive: 35.5 µM [inhibitor, partial curve, poor fit]"}
{"smiles": "COc1cccc(/C=N/NC(=O)c2cc3c(OC)cccc3[nH]2)c1OC", "activity, negative = inhibition": "inactive: -38.6%"}
{"smiles": "CCOC(=O)c1cccc(NC(=O)C2CCN(S(=O)(=O)c3cccs3)CC2)c1", "Potency": "inconclusive: 25.1 µM [inhibitor, partial curve, poor fit]"}
{"smiles": "COC(=O)CCCn1cc(CN2CC(N3CCN(C4CCN(C)CC4)CC3)CS2(=O)=O)nn1", "note": "(configuration not stated)", "Potency": "inconclusive: 8.91 µM [inhibitor, partial curve, poor fit]"}
